{"sequences": {"note": "By UniProt entry, the sequences of proteins in these tests, tags left out. Residues count along the entry.", "UniProt P62140, residues 6-327": "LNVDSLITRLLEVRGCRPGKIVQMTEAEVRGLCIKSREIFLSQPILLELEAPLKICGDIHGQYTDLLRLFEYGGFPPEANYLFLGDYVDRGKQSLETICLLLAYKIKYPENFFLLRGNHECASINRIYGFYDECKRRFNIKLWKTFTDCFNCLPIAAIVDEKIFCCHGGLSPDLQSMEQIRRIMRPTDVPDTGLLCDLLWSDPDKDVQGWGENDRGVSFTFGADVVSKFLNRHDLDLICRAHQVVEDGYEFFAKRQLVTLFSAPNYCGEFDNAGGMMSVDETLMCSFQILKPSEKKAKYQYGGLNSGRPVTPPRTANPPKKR", "UniProt P02769, residues 25-607": "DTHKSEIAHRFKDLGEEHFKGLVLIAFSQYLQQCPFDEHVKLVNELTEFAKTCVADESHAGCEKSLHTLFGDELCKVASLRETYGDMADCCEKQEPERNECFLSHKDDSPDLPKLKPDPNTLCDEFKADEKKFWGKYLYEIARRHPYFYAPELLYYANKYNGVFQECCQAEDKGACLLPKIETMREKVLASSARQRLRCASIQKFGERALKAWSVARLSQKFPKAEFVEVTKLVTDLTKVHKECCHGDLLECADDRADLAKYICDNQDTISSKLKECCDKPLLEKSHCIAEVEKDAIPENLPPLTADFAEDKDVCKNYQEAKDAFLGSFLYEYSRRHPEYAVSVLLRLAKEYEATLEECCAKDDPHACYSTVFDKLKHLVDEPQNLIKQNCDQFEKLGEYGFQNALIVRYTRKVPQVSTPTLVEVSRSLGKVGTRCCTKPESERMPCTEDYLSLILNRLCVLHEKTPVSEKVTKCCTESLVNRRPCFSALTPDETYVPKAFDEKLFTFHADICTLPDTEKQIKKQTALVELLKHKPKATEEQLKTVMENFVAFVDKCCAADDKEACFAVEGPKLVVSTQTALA"}, "source": "paper PMC11178824", "molecular_target": "His6-tagged catalytic subunit of protein phosphatase 1, PP1β 6-327 (UniProt P62140)", "assay": "pull-down; His6-PP1 (75 μL of 5 μM) as bait on Ni-NTA resin with 100 μL of 1 μM A647-C1mC2 or A647-BSA; PBS pH 7.5, 500 mM NaCl, 0.01% tween-20, 40 mM imidazole, 0.5 mM MnCl2, 2 mM DTT; 45 min at RT; A647 signal of the bound fraction on SDS-PAGE; both purified", "note": "These are yes or no findings as the source states them, for the method shown."}
{"substance": "Alexa647-labeled BSA (from UniProt P02769 25-607)", "values": [{"measurement": "binding", "value": "no binding (tested: 100 μL of 1 μM A647-BSA)"}]}
